Laboratory results from PMC7617456, “Cryptosporidium lysyl-tRNA synthetase inhibitors define the interplay between solubility and permeability required to achieve efficacy” (Science translational medicine, 2024).

System: C. parvum
Type: cell-based, Cryptosporidium parvum
Settings: C. parvum EC50 curve

Row | SMILES | hill slope
1 | O=C(NCC1(O)CCCCC1)c1cc(=O)c2cc(O)ccc2o1 [DDD508] | 2.076 and 2.1
2 | Nc1nc2c(c(C(F)(F)F)n1)C(=O)N(CC1CCCC(C(F)(F)F)C1)C2 (centres unmarked) [DDD489] | 2.716 and 2.7

Several values for one entry are separate records, joined by “and”; a condition that tells them apart may be missing. Equal values may be shown once.
